{"sequences": {"note": "By UniProt entry, the sequences of proteins in these tests, tags left out. Where a name states a change or a piece, a line headed by the entry shows the natural chain unless it says otherwise.", "UniProt P52888, whole entry, looked up": "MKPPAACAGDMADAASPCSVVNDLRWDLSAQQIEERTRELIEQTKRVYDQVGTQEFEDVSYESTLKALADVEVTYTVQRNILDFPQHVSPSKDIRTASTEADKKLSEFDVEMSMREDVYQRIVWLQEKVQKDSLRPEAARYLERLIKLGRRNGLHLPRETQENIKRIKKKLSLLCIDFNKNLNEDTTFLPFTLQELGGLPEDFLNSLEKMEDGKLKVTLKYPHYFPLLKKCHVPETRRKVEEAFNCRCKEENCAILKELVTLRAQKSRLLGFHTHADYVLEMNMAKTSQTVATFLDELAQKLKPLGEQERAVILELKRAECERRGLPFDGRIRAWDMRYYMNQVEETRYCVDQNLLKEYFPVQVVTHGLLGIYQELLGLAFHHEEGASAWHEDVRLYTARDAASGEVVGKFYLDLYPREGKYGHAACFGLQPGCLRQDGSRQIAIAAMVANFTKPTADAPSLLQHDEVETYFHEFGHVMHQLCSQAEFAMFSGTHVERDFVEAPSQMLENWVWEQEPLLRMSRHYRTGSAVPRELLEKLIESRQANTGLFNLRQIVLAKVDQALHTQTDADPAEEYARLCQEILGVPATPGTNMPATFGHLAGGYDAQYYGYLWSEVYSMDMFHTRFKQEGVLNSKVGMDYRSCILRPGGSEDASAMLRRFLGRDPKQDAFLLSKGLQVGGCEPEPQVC", "UniProt O60830": "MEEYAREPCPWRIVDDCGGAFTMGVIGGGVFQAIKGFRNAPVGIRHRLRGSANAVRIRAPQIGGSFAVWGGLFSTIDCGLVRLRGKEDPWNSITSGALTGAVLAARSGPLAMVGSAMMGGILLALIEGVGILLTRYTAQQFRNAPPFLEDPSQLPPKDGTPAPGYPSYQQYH", "UniProt Q9Y4R8, whole entry, looked up": "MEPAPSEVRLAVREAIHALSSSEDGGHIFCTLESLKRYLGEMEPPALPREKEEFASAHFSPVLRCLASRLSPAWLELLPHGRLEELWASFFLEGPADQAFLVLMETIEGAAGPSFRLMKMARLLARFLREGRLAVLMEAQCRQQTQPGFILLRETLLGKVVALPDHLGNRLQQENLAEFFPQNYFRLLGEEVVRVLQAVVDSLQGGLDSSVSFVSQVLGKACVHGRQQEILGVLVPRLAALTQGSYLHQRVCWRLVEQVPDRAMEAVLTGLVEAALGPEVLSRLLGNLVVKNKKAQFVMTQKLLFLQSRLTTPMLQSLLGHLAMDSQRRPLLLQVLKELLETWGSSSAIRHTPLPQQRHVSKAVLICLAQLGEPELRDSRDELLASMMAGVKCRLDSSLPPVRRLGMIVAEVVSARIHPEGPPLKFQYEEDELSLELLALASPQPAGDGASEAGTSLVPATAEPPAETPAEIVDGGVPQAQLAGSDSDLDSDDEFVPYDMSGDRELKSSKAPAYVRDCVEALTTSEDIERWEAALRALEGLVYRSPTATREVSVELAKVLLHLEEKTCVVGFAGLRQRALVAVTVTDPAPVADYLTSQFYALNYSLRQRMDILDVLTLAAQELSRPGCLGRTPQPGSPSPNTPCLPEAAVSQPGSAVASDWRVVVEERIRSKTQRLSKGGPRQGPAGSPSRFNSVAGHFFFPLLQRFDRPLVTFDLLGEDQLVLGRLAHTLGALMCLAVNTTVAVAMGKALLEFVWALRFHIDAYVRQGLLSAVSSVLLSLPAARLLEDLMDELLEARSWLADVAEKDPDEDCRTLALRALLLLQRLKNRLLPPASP", "UniProt Q86W42": "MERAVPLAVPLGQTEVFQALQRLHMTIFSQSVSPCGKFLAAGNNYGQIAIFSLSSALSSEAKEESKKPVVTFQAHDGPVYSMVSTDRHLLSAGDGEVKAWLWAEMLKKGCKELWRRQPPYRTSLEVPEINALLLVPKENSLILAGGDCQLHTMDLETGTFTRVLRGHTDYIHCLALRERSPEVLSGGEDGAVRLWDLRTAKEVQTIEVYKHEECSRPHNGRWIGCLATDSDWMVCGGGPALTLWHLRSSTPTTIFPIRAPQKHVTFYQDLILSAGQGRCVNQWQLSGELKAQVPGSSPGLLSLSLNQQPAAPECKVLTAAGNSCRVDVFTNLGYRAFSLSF", "UniProt Q96RS0": "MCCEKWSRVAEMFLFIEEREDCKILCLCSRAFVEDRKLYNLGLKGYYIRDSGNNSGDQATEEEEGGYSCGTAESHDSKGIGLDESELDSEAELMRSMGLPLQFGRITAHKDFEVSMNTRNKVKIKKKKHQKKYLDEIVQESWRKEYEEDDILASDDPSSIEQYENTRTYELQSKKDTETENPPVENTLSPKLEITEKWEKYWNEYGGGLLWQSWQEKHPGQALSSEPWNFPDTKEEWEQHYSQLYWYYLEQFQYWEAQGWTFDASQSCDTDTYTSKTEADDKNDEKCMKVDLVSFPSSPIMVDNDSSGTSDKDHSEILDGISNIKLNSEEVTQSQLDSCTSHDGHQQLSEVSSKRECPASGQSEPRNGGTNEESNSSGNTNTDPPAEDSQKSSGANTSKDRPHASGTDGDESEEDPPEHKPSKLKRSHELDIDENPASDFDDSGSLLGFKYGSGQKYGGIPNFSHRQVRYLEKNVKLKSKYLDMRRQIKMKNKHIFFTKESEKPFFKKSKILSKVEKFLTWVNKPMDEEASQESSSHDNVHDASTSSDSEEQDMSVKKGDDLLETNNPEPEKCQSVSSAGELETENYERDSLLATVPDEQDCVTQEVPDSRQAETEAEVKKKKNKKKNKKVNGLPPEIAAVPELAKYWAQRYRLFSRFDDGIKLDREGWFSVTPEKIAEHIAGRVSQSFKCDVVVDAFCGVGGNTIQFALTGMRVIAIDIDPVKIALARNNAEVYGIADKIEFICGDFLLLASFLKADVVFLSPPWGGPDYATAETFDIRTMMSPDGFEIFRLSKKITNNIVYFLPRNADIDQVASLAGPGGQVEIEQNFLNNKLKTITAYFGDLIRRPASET", "UniProt Q9NZ01": "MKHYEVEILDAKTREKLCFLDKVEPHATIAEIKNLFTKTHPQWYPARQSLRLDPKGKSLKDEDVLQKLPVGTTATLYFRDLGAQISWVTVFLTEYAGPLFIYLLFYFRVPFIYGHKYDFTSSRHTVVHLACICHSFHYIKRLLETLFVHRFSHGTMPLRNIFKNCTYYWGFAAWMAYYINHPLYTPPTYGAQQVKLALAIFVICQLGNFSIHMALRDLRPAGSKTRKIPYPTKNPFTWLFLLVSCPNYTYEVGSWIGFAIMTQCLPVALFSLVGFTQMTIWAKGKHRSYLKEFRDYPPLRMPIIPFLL", "UniProt P17987, whole entry, looked up": "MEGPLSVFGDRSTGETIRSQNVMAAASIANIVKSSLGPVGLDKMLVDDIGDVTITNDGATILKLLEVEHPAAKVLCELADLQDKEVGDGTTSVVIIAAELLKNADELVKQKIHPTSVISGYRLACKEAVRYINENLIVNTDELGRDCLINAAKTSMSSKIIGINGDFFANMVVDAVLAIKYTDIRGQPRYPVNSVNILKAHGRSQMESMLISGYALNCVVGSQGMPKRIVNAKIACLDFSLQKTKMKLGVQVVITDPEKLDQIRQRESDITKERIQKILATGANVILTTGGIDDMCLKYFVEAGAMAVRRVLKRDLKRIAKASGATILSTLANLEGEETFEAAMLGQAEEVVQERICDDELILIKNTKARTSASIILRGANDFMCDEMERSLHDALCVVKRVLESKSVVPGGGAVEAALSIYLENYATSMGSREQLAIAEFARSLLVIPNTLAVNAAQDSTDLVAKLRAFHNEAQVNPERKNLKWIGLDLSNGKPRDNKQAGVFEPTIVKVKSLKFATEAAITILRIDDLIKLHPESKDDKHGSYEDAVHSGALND", "UniProt Q96FV9": "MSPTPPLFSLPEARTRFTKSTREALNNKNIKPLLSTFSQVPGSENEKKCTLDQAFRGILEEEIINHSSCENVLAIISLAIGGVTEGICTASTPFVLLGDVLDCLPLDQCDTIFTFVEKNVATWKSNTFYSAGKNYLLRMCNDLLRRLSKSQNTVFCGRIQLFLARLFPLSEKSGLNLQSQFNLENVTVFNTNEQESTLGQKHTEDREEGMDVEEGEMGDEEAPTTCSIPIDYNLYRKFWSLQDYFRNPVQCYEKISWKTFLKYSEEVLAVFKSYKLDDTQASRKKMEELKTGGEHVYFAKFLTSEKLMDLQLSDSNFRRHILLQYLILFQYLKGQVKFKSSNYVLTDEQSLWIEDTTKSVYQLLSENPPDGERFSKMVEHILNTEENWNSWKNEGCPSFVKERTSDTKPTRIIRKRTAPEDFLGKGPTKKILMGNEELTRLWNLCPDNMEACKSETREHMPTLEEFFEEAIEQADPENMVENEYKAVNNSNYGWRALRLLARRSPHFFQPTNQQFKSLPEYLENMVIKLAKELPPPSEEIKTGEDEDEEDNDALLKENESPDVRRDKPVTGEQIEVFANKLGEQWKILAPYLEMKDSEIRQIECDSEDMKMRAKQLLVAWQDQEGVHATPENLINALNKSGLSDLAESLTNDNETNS", "UniProt Q8NI27": "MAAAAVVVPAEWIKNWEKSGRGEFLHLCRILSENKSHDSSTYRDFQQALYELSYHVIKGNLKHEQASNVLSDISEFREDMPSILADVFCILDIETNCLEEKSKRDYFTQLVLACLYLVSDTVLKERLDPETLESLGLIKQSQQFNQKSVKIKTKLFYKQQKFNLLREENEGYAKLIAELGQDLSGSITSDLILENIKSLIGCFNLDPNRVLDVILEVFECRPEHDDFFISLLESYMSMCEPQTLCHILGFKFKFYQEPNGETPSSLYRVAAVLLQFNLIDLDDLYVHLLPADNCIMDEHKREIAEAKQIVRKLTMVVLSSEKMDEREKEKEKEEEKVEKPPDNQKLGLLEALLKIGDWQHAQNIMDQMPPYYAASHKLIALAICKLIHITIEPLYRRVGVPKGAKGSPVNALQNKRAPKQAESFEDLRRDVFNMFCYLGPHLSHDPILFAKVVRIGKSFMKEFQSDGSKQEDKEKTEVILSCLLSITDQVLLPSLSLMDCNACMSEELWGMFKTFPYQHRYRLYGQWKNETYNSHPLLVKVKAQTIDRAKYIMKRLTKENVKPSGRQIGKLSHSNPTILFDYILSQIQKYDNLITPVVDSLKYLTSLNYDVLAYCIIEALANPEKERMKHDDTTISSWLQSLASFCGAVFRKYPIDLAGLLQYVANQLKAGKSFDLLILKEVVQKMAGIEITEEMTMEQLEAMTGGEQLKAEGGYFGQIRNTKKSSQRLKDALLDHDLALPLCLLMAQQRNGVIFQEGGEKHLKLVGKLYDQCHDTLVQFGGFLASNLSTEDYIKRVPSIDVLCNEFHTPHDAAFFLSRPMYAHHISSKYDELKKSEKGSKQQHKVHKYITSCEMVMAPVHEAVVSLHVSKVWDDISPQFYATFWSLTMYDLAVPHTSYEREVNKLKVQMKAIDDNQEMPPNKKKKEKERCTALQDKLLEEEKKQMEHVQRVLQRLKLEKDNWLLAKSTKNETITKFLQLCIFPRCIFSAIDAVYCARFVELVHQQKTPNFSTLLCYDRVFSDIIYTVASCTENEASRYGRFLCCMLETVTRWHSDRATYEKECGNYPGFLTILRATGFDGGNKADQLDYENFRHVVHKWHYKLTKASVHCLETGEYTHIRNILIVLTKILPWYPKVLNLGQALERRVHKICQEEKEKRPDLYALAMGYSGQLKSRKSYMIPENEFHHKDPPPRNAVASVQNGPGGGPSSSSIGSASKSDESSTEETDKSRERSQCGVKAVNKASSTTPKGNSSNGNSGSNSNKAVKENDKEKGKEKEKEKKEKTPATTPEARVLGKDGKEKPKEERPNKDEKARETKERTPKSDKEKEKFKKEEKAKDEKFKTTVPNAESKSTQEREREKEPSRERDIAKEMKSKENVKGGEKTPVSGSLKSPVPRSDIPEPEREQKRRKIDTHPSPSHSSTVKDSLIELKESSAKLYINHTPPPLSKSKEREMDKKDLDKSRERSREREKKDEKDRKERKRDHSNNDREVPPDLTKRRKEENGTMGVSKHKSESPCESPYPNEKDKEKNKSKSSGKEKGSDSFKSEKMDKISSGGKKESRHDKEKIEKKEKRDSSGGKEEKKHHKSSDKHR", "UniProt Q9Y6I9": "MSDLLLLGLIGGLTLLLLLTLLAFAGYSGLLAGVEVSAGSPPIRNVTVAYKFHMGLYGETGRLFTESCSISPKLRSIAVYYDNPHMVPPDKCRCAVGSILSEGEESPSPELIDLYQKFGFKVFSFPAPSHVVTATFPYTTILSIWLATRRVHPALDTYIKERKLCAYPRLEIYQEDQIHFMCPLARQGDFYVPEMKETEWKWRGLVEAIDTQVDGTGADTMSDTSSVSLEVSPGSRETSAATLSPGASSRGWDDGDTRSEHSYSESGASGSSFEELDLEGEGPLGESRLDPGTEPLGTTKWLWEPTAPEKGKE", "UniProt Q9NQ88": "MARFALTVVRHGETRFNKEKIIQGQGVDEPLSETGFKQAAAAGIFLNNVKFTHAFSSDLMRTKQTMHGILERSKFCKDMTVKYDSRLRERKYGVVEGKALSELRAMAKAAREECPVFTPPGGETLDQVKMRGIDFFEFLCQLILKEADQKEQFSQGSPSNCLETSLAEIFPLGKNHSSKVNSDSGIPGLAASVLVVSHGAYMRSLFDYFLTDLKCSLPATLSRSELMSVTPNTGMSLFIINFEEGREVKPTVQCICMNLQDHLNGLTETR"}, "source": "the supplement of paper PMC12067093", "about": "“Discovery and optimisation of a covalent ligand for TRIM25 and its application to targeted protein ubiquitination” (Chemical Science, 2025)", "note": "Some of the results follow.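 Note: competitive chemoproteomic profiling in live THP-1 cells with an iodoacetamide desthiobiotin (IA-DTB) probe, comparing probe-labelled peptide intensities in compound-treated cells against DMSO-treated controls.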", "data": [{"compound": "CC1Cc2ccccc2N1C(=O)C1CCCN(C1)C(=O)CCl (mixture of isomers) [TRIM25 ligand 11 (diastereomer mixture)]", "experiment": "probe-labelled cysteine peptide fold change vs DMSO (competition) (log2 fold change); higher = less target engagement (more negative = stronger competition)", "conditions": "10 µM; THP-1; incubation time: 4 h", "values": [{"target": "TLN1_Q9Y490_1363_ECDNALRELETVR (UniProt Q9Y490)", "probe-labelled cysteine peptide fold change": -0.419}, {"target": "THOP1_P52888_682_GLQVGGCEPEPQVC (UniProt P52888)", "probe-labelled cysteine peptide fold change": 0.131}, {"target": "TIMELESS_Q9UNS1_606_IQDCLLAGQAPQALTLLR (UniProt Q9UNS1)", "probe-labelled cysteine peptide fold change": 0.329}, {"target": "TIMM17B_O60830_17_IVDDCGGAFTMGVIGGGVFQAIK (UniProt O60830)", "probe-labelled cysteine peptide fold change": -0.106}, {"target": "THSD7A_Q9UPZ6_1036_CNSHGYIEEACIIPCPSDCK (UniProt Q9UPZ6)", "probe-labelled cysteine peptide fold change": 0.065}, {"target": "TFCP2_Q12800_72_ILPFQYVLCAATSPAVK (UniProt Q12800)", "probe-labelled cysteine peptide fold change": 0.138}, {"target": "TELO2_Q9Y4R8_222_ACVHGR (UniProt Q9Y4R8)", "probe-labelled cysteine peptide fold change": -0.0174}, {"target": "THAP12_O43422_68_HFETSMICR (UniProt O43422)", "probe-labelled cysteine peptide fold change": 0.113}, {"target": "THADA_Q6YHU6_464_YTCLGCLVECIGVEHILAIDK (UniProt Q6YHU6)", "probe-labelled cysteine peptide fold change": 0.442}, {"target": "THOC6_Q86W42_279_CVNQWQLSGELK (UniProt Q86W42)", "probe-labelled cysteine peptide fold change": 0.0536}, {"target": "TGS1_Q96RS0_357_ECPASGQSEPR (UniProt Q96RS0)", "probe-labelled cysteine peptide fold change": 0.199}, {"target": "TECR_Q9NZ01_18_LCFLDK (UniProt Q9NZ01)", "probe-labelled cysteine peptide fold change": 0.0168}, {"target": "THOC6_Q86W42_148_ENSLILAGGDCQLHTMDLETGTFTR (UniProt Q86W42)", "probe-labelled cysteine peptide fold change": 0.117}, {"target": "TCF25_Q9BQ70_540_EPATMSWLEENVHEVLQAVDAGDPAVEACENRR (UniProt Q9BQ70)", "probe-labelled cysteine peptide fold change": -0.0482}, {"target": "TCP1_P17987_236_IACLDFSLQK (UniProt P17987)", "probe-labelled cysteine peptide fold change": 0.0287}, {"target": "TKFC_Q3LXA3_13+24_LVNSVAGCADDALAGLVACNPNLQLLQGHR (UniProt Q3LXA3)", "probe-labelled cysteine peptide fold change": 0.439}, {"target": "THOC6_Q86W42_314_AQVPGSSPGLLSLSLNQQPAAPECK (UniProt Q86W42)", "probe-labelled cysteine peptide fold change": -0.0144}, {"target": "THOC1_Q96FV9_156_SQNTVFCGR (UniProt Q96FV9)", "probe-labelled cysteine peptide fold change": -0.227}, {"target": "THOC2_Q8NI27_1031_VFSDIIYTVASCTENEASR (UniProt Q8NI27)", "probe-labelled cysteine peptide fold change": 0.0288}, {"target": "TEX264_Q9Y6I9_182_LEIYQEDQIHFMCPLAR (UniProt Q9Y6I9)", "probe-labelled cysteine peptide fold change": 0.0432}, {"target": "THAP10_Q9P2Z0_171_QAAASQITCENELVQTQPHADNPSNTVTSVPTHCEEGPVHK (UniProt Q9P2Z0)", "probe-labelled cysteine peptide fold change": -0.116}, {"target": "TIGAR_Q9NQ88_161_EQFSQGSPSNCLETSLAEIFPLGK (UniProt Q9NQ88)", "probe-labelled cysteine peptide fold change": -0.0683}, {"target": "THOP1_P52888_175_KLSLLCIDFNK (UniProt P52888)", "probe-labelled cysteine peptide fold change": -0.13}, {"target": "TKT_P29401_225_RCEAFGWHAIIVDGHSVEELCK (UniProt P29401)", "probe-labelled cysteine peptide fold change": -0.0561}, {"target": "TES_Q9UGI8_164_CHELSPR (UniProt Q9UGI8)", "probe-labelled cysteine peptide fold change": -0.056}, {"target": "TCIRG1_Q13488_238+241_KITDCFHCHVFPFLQQEEAR (UniProt Q13488)", "probe-labelled cysteine peptide fold change": 0.117}, {"target": "TK1_P04183_185_YHSVCR (UniProt P04183)", "probe-labelled cysteine peptide fold change": -0.118}, {"target": "THBS1_P07996_657_NPCTDGTHDCNK (UniProt P07996)", "probe-labelled cysteine peptide fold change": 0.474}, {"target": "TIMM29_Q9BSF4_182_DCDINDDEFLHLPAHLR (UniProt Q9BSF4)", "probe-labelled cysteine peptide fold change": 0.0233}, {"target": "TFB2M_Q9H5Q4_149_VIHCDFFK (UniProt Q9H5Q4)", "probe-labelled cysteine peptide fold change": -0.019}, {"target": "TKFC_Q3LXA3_155_GLCGTVLIHK (UniProt Q3LXA3)", "probe-labelled cysteine peptide fold change": -0.12}, {"target": "THEMIS2_Q5TEJ8_355_DCEGEREENPEFTSLAVGDR (UniProt Q5TEJ8)", "probe-labelled cysteine peptide fold change": 0.0755}, {"target": "TEPSIN_Q96N21_295_GTSECTQLR (UniProt Q96N21)", "probe-labelled cysteine peptide fold change": 0.0525}, {"target": "TCF20_Q9UGU0_1918_YHYPCAIDADCLLHEENFSVR (UniProt Q9UGU0)", "probe-labelled cysteine peptide fold change": 0.02}, {"target": "TEX10_Q9NXF1_454_DCSWIEMIR (UniProt Q9NXF1)", "probe-labelled cysteine peptide fold change": 0.0904}, {"target": "TELO2_Q9Y4R8_30_EAIHALSSSEDGGHIFCTLESLKR (UniProt Q9Y4R8)", "probe-labelled cysteine peptide fold change": 0.0505}, {"target": "TCP1_P17987_296_ILATGANVILTTGGIDDMCLK (UniProt P17987)", "probe-labelled cysteine peptide fold change": -0.0684}, {"target": "TGFBR1_P36897_71_VIHNSMCIAEIDLIPR (UniProt P36897)", "probe-labelled cysteine peptide fold change": 0.0712}]}]}
